Values from PubChem BioAssay AID504764 (Drosophila RNAi Screening Center, 2011)

Screen: 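Knock-downs that raise or lower a Notch target reporter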 (primary screen)
Cells: Drosophila Kc167 cells
Reagents: long dsRNA against Drosophila genes
Timing: about 5 days (4 days dsRNA, then 24 h after transfection)
Conditions: transfection of constitutively active membrane-tethered Notch lacking the extracellular domain, read 24 h later
Detection: 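Light from a Notch-responsive E(spl)m3 luciferase reporter under active Notch, with control-promoter and no-Notch reporter wells to normalise; raw counts from paired wells a and b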
Reading the numbers: induced reporter light, run 1, well a and induced reporter light, run 1, well b: higher = more light from the Notch target reporter with active Notch; control promoter light, run 1, well a and control promoter light, run 1, well b: higher = more light from the viral control promoter (cell number, transfection, viability); uninduced reporter light, run 1, well a: higher = more light from the Notch target reporter without active Notch
Hit rule: 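Hit if the duplicate-averaged log2 ratio of induced to control-promoter light gives a plate-wise z beyond ±2, or induced to uninduced beyond ±1.8; weak-control or discordant-duplicate wells dropped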
Meaning of the calls: active = modifier hit (raised or lowered Notch signal); inactive = not a hit
In all, the deposit lists about 22,000 reagents; shown is an unselected part of those with a known target gene and a result. Over the whole deposit, 403 (1.9%) are marked active. 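Unnormalised raw counts per well; ratio z-scores behind the hit calls and whether each hit raises or lowers signal are not deposited.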 Reagents against one gene are numbered here. Reagent sequences are not shown. Not given: the amount of reagent.

no.	Gene	dsRNA no.	induced reporter light, run 1, well a	induced reporter light, run 1, well b	control promoter light, run 1, well a	control promoter light, run 1, well b	uninduced reporter light, run 1, well a	call
1	CG8642	1	1.50e5	1.72e5	2.07e5	2.07e5	14120	inactive
2	Wnt10	1	1.57e5	1.53e5	1.70e5	1.56e5	9685	inactive
3	Wnt10	2	58705	54805	71010	52430	3815	inactive
4	ppk24	1	1.42e5	1.24e5	2.26e5	2.18e5	11370	inactive
5	CG4669	1	1.72e5	1.22e5	1.04e5	53820	15050	inactive
6	Gnpnat	1	1.58e5	1.63e5	1.97e5	2.16e5	12210	inactive
7	lectin-37Db	1	50790	52190	53685	47360	2720	inactive
8	CG13958 (retired record)	1	42715	35745	68695	86845	3640	inactive
9	Lint-O	1	83470	77855	1.46e5	1.20e5	7835	inactive
10	Vps13	1	1.99e5	1.57e5	1.97e5	2.17e5	13510	inactive
11	CG16787	1	1.55e5	1.64e5	1.50e5	1.45e5	10192	inactive
12	CG13272	1	1.36e5	1.32e5	1.38e5	1.55e5	12935	inactive
13	Lamtor1	1	1.53e5	1.31e5	1.16e5	97560	9450	inactive
14	Obp83a	1	85030	1.05e5	83570	73600	4505	inactive
15	Tbp	1	16685	14085	10110	8605	1770	inactive
16	EMC1	1	1.36e5	1.26e5	81060	80890	10975	inactive
17	mira	1	1.72e5	1.83e5	1.67e5	2.02e5	13105	inactive
18	CG31807	1	58195	64040	69645	54345	5105	inactive
19	CG7991	1	1.37e5	1.59e5	1.81e5	2.25e5	7090	inactive
20	RasGAP1	1	1.63e5	1.34e5	2.84e5	1.83e5	4420	inactive
21	eEF1alpha2	1	83540	1.04e5	1.26e5	1.11e5	6560	inactive
22	eEF1alpha2	2	73285	66020	1.09e5	1.21e5	5785	inactive
23	CG10384	1	70015	89580	68545	70545	8350	inactive
24	CG10384	2	1.13e5	1.36e5	1.03e5	96635	10230	inactive
25	CG15529	1	1.34e5	1.25e5	1.96e5	1.87e5	12120	inactive
26	Vps45	1	86550	69375	73060	60185	5535	inactive
27	CG15905	1	1.11e5	86670	1.44e5	1.53e5	9040	inactive
28	CG12479	1	85570	85340	1.06e5	84915	11138	inactive
29	WASp	1	1.24e5	1.25e5	1.75e5	1.71e5	11355	inactive
30	ND-MNLL	1	1.06e5	1.02e5	2.14e5	1.92e5	8340	inactive
31	Acp1	1	95705	1.45e5	97960	1.22e5	18415	inactive
32	CG14840	1	3.28e5	4.01e5	3.20e5	3.72e5	29570	inactive
33	CG9259	1	64725	29920	36545	57410	1800	inactive
34	Vps26	1	57025	68525	74570	81650	9800	inactive
35	CG34316	1	1.12e5	99120	1.01e5	1.28e5	9255	inactive
36	CG9297	1	1.20e5	1.07e5	89015	71355	9815	inactive
37	ppk20	1	7780	6600	12050	10418	532	inactive
38	CG31050	1	1.70e5	1.59e5	1.73e5	1.64e5	12315	inactive
39	Wdr81	1	2.22e5	1.98e5	1.82e5	2.22e5	17390	inactive
40	CG33493	1	1.47e5	1.45e5	1.74e5	1.83e5	7942	inactive
41	CG13312	1	1.88e5	1.78e5	2.34e5	2.31e5	11490	inactive
42	CG30269	1	1.69e5	1.41e5	1.84e5	1.64e5	11145	inactive
43	Obp69a	1	1.62e5	1.45e5	3.18e5	2.96e5	10495	active
44	Msh6	1	2.08e5	1.72e5	2.36e5	2.51e5	13375	inactive
45	Cyp6a2	1	2.29e5	1.98e5	2.38e5	2.02e5	18505	inactive
46	CG18493	1	1.91e5	1.75e5	2.20e5	2.33e5	15015	inactive
47	Lsm11	1	2.13e5	1.65e5	2.03e5	1.95e5	16890	inactive
48	CG14102	1	1.20e5	1.20e5	1.21e5	97830	14595	inactive
49	CG7879	1	65220	67265	1.17e5	1.15e5	5980	inactive
50	CG31517	1	1.01e5	1.21e5	1.45e5	1.17e5	9750	inactive

Limited to “control promoter light, run 1, well b”, for 5 of the entries above:
CG16787	1.45e5
CG13272	1.55e5
Lamtor1	97560
Obp83a	73600
Tbp	8605
